A short description of data set [1]: Static coin cell galvanostatic cycling with Li metal negative electrode. Conditions: 10 mM in 0.5 M LiBF4 in PC; for Original charge capacity retained after 30 cycles: C/5, 3.2-3.8 V, Li metal negative electrode; for Coulombic efficiency: stabilized value over 30 cycles, C/5. The method, then:
Next, to evaluate MEPT and MEEPT as cathode candidates for RFBs, the performance of the redox-active species over multiple charge and discharge cycles was analyzed, albeit in a static environment, using galvanostatic cycling in MEPT/Li and MEEPT/Li coin cells. Here we employed the electrolyte 0.5 M LiBF4 in PC in which both MEPT and MEEPT are miscible at as high as 50 wt. % (Table 1). The positive electrode was composed of graphite felt soaked in catholyte consisting of 10 mM active species in 0.5 M LiBF4 in PC, and Li metal was employed as the negative electrode. The electrodes were separated by a lithiated Nafion membrane. The coin cells were cycled between 3.2 and 3.8 V at a rate of C/5 up to 100% SOC so that the first oxidation would be accessed. The theoretical capacities of EPT, MEPT, and MEEPT are 118 mAh/g, 104 mAh/g, and 89 mAh/g, respectively. The charge and discharge plateaus occur in accordance with the potentials determined by CV; they represent the formation and reversible reduction of the respective radical cations. […] The gap between the charge and discharge capacities may result from crossover of the charged species. […] EPT, MEPT, and MEEPT retained ca. 76%, 68% and 67%, respectively, of the original charge capacity after 30 cycles, over which time the coulombic efficiencies for all three catholytes stabilized at ca. 90%.
The charge/discharge experiments were performed using a coin cell cycled by a Landt CT2001A battery cycler. All solutions were prepared in the argon-filled glovebox at room temperature. The catholyte used contained 10 mM EPT, MEPT, or MEEPT in 0.5 M LiBF4 in PC. Nafion 117 was used as the separator membrane between a graphite felt electrode (Sigracell® GFD3) and Li metal electrode. The graphite felt was vacuum dried at 80° C. overnight prior to use. The positive graphite electrodes were soaked in solutions of respective catholytes, for 3-4 h prior to use. When soaked, the foam electrodes absorb approximately 0.43 g of solution (active material: 0.7-1.0 mg). The Nafion membrane was pretreated and soaked in a solution of 0.5 M LiBF4 in PC for 3-4 h prior to use. Each coin cell was assembled in the glovebox and was removed for cycling. The cells were cycled between 3.2 and 3.8 V at a constant current of ca. 0.02 mA, corresponding to C/5 current rate. The charge process continued until the cell reach 100% theoretical capacity or 3.8 V voltage limit, whichever occurred first. Similarly, the discharge process was controlled by reaching 100% theoretical capacity or voltage limit of 3.2 V.

Data set [2] is described as follows: Overcharge cycling in LFP/graphite coin cells, 80 mM, C/10. Conditions: 80 mM in Gen 2 electrolyte, LFP/graphite coin cell, C/10, 100% overcharge. The method, then: To determine if the high stability of MEPT and MEEPT were compatible in high concentrations in the neutral and radical cation forms in an environment with greater similarities to that of a non-aqueous RFB, the performance of these electro-active species in overcharging LIBs was evaluated, a method that Zhang and coworkers have also used to analyze the stability of electro-active material candidates. Overcharge experiments with MEPT and MEEPT were conducted at both low (80 mM) and high (1.0 M) concentrations in Gen 2 battery electrolyte in coin cells containing LiFePO4 (LFP) cathodes and graphitic anodes. At 80 mM, EPT, MEPT, and MEEPT were cycled at a rate of C/10 where the charge passed was double that needed to reach 100% state of charge (SOC), and then discharged at the same rate. As expected from the CV characterization, MEPT and MEEPT show higher shuttling potentials (3.50 and 3.55 V, respectively) than EPT (3.40 V) (FIG. 4). This difference is likely due to coordination of Li^+ to the redox shuttle, increasing the oxidation potentials.
Overcharge tests were conducted with stainless steel 2032 coin cells using LiFePO4 (MTI, Richmond, Calif.) as the cathode and MAG-10 (APHEVB, Argonne National Laboratory) as the anode. The anode was composed of 95 wt. % MAG-10 graphite (Hitachi) as the active material and 5 wt. % SBR/CMC (50/50) as the binder. The electrolyte used in coin cell testing was 1.2 M LiPF6 in EC/EMC (3:7 wt. %). Microporous PP/PE/PP trilayer separators from Celgard were used to prevent contact between the anode and cathode. Coin cells were prepared in an argon-filled glovebox with <0.1 ppm oxygen or water present. A Landt CT2001A battery cycler was used for coin cell cycling. Overcharge cycling was conducted by charging with constant current at rate of C/10 for 20 h, followed by discharge at a rate of C/10 for 10 h. […]

SMILES strings stand for the structures.

With `CCN1c2ccccc2Sc2ccccc21` [EPT, N-ethylphenothiazine, reference compound], in data set [1], the “Original charge capacity retained after 30 cycles” value (from here on “Original charge capacity retained”) was “ca. 76%” and the Coulombic efficiency result is on record as “ca. 90%”. The compound also returned a Shuttling potential in data set [2] of 3.40 V.

Consider `COCCOCCN1c2ccccc2Sc2ccccc21` [MEEPT, N-[2-(2-methoxyethoxy)ethyl]phenothiazine], for which, in data set [1], the “Original charge capacity retained” value is about 67% and the Coulombic efficiency entry is reported as “ca. 90%”. In addition, the Shuttling potential in data set [2] was determined as 3.55 V.

`COCCN1c2ccccc2Sc2ccccc21` [MEPT, N-(2-methoxyethyl)phenothiazine]: in data set [1], the “Original charge capacity retained” value is recorded as about 68% and the Coulombic efficiency result was “ca. 90%”. In data set [2], this compound registered a Shuttling potential of 3.50 V.

The values above are taken from patent publication US10103402B2, “Liquid phenothiazine catholytes for non-aqueous redox flow batteries” (University of Kentucky Research Foundation, priority 2015, dated 2018).
